PubChem BioAssay AID504764, Drosophila RNAi Screening Center, 2011
Aim: 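Genome-wide screen for regulators of Notch-driven gene expression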 (primary screen). Cells: Drosophila Kc167 cells. Reagents: long dsRNA against Drosophila genes. Duration: about 5 days (4 days dsRNA, then 24 h after transfection). Treatment: transfection of constitutively active membrane-tethered Notch lacking the extracellular domain, read 24 h later. Measurement: 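Light from a Notch-responsive E(spl)m3 luciferase reporter under active Notch, with control-promoter and no-Notch reporter wells to normalise; raw counts from paired wells a and b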. Reading the numbers: induced reporter light, run 1, well a and induced reporter light, run 1, well b: higher = more light from the Notch target reporter with active Notch; control promoter light, run 1, well a and control promoter light, run 1, well b: higher = more light from the viral control promoter (cell number, transfection, viability); uninduced reporter light, run 1, well a: higher = more light from the Notch target reporter without active Notch. Active means: 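Wells with low control signal or poorly matching duplicates excluded; duplicates averaged; per source plate, z beyond ±2 for induced/control log2 ratio or beyond ±1.8 for induced/uninduced marks a hit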. Meaning of the calls: active = modifier hit (raised or lowered Notch signal); inactive = not a hit.
The screen tested about 22,000 reagents; this is a random part of those that have a named target and a result. Over the whole deposit, 403 (1.9%) were called active. 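Unnormalised raw counts per well; ratio z-scores behind the hit calls and whether each hit raises or lowers signal are not deposited.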 The record does not give: the amount of reagent.

no.	target gene	amplicon	induced reporter light, run 1, well a	induced reporter light, run 1, well b	control promoter light, run 1, well a	control promoter light, run 1, well b	uninduced reporter light, run 1, well a	Call
1	Spg7	DRSC18469	1.01e5	87435	1.38e5	1.70e5	8465	inactive
2	CG2116	DRSC18206	2.24e5	2.81e5	3.56e5	3.46e5	13610	inactive
3	Clamp	DRSC03718	1.03e5	1.37e5	74515	87625	7090	inactive
4	CG42534	DRSC14722	17400	13840	16770	15990	4115	inactive
5	CG42534	DRSC14759	14755	12900	15585	15990	4225	inactive
6	CG42534	DRSC16072	1.30e5	1.17e5	1.75e5	1.65e5	10065	inactive
7	Wdr37	DRSC14500	2438	2720	2615	2815	365	inactive
8	Obp59a	DRSC04160	2.08e5	1.49e5	1.76e5	1.42e5	13125	inactive
9	CG43102	DRSC14797	1.99e5	1.80e5	1.98e5	1.99e5	14290	inactive
10	CG43102	DRSC16239	2.17e5	1.98e5	2.30e5	2.24e5	18140	inactive
11	CG34289	DRSC13625	1.52e5	2.12e5	1.58e5	1.90e5	13305	inactive
12	CG12541	DRSC17483	69905	72205	69705	56740	6205	inactive
13	CG12541	DRSC17839	1.36e5	1.51e5	2.46e5	2.51e5	11795	inactive
14	Spn88Eb	DRSC16093	1.58e5	1.16e5	1.30e5	1.10e5	10855	inactive
15	stc	DRSC03620	2.11e5	2.34e5	2.10e5	2.45e5	15930	inactive
16	CG33937 (retired record)	DRSC15148	1.19e5	1.15e5	97995	85805	5905	inactive
17	Hr51	DRSC06627	91310	81695	1.18e5	1.24e5	7065	inactive
18	Hr51	DRSC22829						active
19	PheRS-m	DRSC05915	1.43e5	1.70e5	1.78e5	1.87e5	15125	inactive
20	CG9933	DRSC03276	1.30e5	1.54e5	1.46e5	1.49e5	13200	inactive

3 entries from above, reduced to “control promoter light, run 1, well a”:
CG42534 [DRSC14722]	16770
CG42534 [DRSC14759]	15585
CG42534 [DRSC16072]	1.75e5
